The supplement of paper PMC10849652
The other results are listed elsewhere or left out.

By UniProt entry, the sequences of proteins in these tests, tags left out. Where a name states a change or a piece, a line headed by the entry shows the natural chain unless it says otherwise.
UniProt Q8N999, whole entry, looked up: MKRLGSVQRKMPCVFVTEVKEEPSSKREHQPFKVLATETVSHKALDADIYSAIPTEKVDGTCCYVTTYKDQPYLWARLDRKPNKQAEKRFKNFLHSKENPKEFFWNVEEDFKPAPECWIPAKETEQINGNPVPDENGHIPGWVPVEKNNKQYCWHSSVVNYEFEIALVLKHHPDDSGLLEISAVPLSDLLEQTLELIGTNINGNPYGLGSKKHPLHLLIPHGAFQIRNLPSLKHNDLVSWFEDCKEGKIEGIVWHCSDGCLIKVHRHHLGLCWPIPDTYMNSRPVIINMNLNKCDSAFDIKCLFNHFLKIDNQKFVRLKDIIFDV
UniProt P35219: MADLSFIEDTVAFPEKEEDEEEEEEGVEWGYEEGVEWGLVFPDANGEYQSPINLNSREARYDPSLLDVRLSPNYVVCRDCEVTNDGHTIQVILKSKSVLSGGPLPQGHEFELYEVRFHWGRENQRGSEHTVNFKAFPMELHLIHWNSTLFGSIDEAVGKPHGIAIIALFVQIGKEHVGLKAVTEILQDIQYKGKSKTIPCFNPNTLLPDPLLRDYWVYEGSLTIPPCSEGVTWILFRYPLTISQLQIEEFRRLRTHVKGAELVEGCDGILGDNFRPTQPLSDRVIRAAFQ
UniProt O43852: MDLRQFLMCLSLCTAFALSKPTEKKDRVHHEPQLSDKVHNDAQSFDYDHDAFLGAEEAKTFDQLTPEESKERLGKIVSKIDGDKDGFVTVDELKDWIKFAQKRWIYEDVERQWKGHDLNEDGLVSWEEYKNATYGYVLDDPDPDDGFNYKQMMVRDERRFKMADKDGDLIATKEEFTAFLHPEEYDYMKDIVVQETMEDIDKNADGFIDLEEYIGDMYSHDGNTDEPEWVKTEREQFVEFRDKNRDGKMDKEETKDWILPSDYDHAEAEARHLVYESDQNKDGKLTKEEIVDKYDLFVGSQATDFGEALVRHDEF
UniProt Q7L1Q6: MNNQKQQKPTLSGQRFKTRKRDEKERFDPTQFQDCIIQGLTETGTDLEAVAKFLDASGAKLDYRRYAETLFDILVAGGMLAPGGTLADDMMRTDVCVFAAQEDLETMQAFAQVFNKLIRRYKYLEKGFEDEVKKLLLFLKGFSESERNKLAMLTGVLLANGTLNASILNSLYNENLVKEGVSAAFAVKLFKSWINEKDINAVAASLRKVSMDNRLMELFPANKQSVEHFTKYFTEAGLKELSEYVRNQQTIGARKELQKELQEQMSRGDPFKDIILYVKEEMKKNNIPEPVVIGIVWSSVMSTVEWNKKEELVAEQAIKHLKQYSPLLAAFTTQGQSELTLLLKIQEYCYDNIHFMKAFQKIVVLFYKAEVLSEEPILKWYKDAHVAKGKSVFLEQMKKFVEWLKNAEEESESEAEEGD
UniProt A6NDU8: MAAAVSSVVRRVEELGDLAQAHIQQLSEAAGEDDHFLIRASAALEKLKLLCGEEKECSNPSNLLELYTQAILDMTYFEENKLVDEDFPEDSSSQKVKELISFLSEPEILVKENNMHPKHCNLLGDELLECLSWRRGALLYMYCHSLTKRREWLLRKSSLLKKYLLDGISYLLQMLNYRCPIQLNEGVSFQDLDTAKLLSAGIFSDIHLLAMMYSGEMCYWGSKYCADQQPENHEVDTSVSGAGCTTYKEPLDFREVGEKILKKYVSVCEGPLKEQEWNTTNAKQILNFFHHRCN
UniProt P27708: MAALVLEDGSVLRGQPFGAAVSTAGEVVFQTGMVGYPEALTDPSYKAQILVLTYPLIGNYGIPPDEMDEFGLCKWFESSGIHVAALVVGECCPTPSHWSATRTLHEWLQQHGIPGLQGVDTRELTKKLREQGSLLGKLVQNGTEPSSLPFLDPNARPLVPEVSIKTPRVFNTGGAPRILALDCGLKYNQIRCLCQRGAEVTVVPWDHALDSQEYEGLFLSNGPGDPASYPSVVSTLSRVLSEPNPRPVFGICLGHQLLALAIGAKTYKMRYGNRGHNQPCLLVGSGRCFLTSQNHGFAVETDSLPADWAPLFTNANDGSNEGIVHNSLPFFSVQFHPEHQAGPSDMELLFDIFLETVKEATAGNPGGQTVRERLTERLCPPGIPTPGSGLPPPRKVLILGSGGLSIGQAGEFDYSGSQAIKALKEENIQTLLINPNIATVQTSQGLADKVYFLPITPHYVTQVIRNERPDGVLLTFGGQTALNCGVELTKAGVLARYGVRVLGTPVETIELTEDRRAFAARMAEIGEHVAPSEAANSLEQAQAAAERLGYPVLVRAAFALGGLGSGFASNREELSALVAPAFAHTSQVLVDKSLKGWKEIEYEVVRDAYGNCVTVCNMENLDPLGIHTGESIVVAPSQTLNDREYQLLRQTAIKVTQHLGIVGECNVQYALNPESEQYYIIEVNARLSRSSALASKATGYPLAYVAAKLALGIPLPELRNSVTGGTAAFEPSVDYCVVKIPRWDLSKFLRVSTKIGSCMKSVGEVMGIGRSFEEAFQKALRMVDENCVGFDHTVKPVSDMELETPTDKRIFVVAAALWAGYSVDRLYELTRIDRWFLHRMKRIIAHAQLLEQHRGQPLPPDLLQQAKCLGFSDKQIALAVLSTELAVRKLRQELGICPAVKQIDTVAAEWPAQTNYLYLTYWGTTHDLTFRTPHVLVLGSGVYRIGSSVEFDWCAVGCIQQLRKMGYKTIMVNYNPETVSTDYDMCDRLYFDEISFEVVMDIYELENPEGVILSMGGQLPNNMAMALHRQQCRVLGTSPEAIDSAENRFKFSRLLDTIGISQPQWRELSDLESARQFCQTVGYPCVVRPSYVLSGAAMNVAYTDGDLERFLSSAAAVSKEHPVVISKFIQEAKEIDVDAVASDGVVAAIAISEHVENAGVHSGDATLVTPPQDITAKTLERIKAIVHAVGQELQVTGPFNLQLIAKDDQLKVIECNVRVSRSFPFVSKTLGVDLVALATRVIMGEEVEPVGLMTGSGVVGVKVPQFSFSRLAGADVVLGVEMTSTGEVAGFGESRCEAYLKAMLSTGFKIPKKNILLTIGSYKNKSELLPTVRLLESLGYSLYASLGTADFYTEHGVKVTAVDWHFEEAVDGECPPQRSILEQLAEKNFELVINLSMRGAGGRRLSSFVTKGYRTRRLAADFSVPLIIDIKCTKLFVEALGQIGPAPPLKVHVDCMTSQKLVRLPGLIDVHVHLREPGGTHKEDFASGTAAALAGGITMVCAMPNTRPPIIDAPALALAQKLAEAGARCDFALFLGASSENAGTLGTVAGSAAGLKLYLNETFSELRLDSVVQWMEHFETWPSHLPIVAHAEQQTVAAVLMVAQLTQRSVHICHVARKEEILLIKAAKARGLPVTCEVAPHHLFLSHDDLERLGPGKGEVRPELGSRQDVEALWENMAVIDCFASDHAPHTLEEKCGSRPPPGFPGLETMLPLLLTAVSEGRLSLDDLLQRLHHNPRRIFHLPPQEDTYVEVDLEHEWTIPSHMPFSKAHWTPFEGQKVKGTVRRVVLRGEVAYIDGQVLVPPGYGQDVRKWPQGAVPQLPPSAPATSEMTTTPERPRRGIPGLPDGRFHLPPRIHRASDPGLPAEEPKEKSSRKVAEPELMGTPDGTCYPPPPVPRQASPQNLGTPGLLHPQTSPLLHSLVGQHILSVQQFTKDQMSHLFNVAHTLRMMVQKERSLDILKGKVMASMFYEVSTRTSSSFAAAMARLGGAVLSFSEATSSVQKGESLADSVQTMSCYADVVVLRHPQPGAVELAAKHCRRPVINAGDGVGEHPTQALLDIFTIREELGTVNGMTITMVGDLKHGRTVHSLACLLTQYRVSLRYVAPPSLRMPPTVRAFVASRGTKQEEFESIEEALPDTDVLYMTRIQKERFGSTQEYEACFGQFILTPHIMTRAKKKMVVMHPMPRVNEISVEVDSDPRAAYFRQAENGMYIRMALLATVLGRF
UniProt Q9BSJ5: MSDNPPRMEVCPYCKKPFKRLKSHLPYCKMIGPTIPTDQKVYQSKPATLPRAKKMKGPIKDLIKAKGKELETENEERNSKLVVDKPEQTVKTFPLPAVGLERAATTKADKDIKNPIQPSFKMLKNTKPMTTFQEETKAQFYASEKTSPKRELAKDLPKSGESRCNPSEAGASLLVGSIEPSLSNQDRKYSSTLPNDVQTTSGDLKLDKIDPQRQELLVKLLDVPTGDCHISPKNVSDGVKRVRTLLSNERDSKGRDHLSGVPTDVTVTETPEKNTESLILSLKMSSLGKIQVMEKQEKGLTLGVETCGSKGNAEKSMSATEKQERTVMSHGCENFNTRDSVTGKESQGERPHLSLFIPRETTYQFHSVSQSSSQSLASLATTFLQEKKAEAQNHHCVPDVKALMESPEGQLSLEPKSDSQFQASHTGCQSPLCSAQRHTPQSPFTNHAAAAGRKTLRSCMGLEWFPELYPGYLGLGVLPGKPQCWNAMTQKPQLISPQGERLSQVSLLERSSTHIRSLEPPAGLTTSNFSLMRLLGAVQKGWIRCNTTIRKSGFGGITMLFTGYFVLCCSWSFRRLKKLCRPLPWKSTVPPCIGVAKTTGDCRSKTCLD
UniProt P23280: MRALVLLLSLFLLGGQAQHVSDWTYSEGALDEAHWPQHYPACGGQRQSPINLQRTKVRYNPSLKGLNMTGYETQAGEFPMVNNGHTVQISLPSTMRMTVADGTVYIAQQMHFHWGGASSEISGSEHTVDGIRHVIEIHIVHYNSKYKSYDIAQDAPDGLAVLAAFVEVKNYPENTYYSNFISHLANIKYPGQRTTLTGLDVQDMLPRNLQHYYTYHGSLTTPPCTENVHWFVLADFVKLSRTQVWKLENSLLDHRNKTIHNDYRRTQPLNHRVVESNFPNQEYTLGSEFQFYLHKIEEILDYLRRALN
UniProt Q9NS00: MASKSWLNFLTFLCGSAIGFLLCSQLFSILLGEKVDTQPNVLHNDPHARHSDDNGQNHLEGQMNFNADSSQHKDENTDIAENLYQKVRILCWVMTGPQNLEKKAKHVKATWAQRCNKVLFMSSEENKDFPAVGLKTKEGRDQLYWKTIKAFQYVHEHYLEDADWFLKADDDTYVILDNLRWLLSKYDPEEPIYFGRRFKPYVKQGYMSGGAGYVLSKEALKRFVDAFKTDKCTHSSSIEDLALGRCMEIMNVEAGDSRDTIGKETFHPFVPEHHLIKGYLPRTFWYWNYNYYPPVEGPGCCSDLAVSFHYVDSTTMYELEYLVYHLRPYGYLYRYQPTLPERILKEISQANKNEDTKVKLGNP
UniProt Q99622: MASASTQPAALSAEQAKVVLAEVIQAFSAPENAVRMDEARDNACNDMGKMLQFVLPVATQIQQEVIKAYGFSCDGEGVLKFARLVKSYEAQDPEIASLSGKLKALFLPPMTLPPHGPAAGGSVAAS
UniProt Q8N3J3: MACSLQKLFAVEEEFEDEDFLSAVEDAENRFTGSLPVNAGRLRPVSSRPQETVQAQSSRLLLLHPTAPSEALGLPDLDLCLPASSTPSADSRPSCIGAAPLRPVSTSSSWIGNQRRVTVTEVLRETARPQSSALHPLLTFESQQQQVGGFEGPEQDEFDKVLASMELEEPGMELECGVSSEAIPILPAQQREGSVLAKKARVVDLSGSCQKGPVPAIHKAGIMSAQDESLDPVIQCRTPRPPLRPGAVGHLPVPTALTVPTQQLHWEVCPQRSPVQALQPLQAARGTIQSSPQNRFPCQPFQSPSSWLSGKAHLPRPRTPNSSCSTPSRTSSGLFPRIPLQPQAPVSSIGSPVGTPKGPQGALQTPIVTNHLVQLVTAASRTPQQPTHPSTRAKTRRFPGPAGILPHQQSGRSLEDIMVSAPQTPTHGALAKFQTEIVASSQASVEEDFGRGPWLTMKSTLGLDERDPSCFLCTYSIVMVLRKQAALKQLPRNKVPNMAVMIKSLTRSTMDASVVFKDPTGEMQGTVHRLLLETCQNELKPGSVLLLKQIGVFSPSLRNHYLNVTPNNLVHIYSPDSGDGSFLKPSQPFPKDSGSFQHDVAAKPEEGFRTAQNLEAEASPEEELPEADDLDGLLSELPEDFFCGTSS
UniProt Q9BRD0: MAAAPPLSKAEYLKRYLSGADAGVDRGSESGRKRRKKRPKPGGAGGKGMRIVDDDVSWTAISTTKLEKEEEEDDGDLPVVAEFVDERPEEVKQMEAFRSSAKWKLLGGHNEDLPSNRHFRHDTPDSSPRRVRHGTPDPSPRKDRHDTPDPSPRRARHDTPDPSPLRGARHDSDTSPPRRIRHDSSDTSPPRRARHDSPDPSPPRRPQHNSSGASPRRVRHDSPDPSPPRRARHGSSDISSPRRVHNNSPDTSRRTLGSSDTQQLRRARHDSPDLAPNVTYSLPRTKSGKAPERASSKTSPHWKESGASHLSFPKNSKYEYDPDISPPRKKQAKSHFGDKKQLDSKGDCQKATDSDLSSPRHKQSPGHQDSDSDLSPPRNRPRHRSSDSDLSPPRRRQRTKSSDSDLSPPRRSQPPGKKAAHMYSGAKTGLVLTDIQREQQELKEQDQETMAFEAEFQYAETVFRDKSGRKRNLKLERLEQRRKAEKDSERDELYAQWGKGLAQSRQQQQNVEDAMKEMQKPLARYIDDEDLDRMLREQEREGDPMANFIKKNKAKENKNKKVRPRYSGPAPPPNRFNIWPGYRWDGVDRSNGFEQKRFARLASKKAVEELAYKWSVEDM

How the values were obtained:
Assay in all cases: log2 fold change, soluble protein after heating vs DMSO (PISA); higher = thermal stabilisation; K562 lysate, 10 uM; active = over 0.2 and 3.5 SD of the protein, either way, in both replicates (recomputed)
[1] = compound: C#Cc1cccc(Nc2ncnc3cc(OCCOC)c(OCCOC)cc23)c1 [erlotinib]
Summary of the method: (§1)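 Following dounce homogenisation of K562 pellets in PBS pH 7.4 with 1 mM MgCl2, crude extract at 1 mg/mL protein was incubated for 30 min with 10 μM compound. Aliquots were then heated for 3 min over 48°C-58°C and pooled, NP-40 was added to 0.5% at 4°C, and soluble protein was recovered as the supernatant at 21,000xg for 90 min. Channel-sum-equalised TMTpro 16plex LC-MS/MS quantified this protein. Each value, from duplicates, is a log-two fold change in thermal stability relative to solvent controls.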

[2] = compound: C/C(=N\NC(=O)C1=CC(=CC=C1)S(=O)(=O)N2CCOCC2)/C3=C(C=CC(=C3)Cl)O
Summary of the method: as §1

[3] = compound: C1=CC(=CC=C1C2=NC3=C(N2)C=C(C=C3)C(=O)N)OC4=CC=C(C=C4)Cl
Summary of the method: as §1

[4] = compound: C1=CC2=C(C=CC(=C2)/C=C\3/C(=O)NC(=NCC4=CC=CS4)S3)N=C1
Summary of the method: as §1

[5] = compound: C1=CC2=NC=CN=C2C=C1/C=C/3\C(=O)NC(=O)S3
Summary of the method: as §1

[6] = compound: C1=CC=C(C=C1)C2=NC(=C(N2)C3=CC=NC=C3)C4=CC(=C(C=C4)Cl)O
Summary of the method: as §1

[7] = compound: C1=CC=C2C(=C1)C3=NNC4=CC=CC(=C43)C2=O
Summary of the method: as §1

[8] = compound: C1CCN(C1)C(=O)NC2=CC=CC(=C2)NC3=NC=C(C(=N3)NCCC4=CN=CN4)Br
Summary of the method: as §1

[9] = compound: C1CN(CCC1(CC2=CC=C(C=C2)Cl)N)C3=NC=NC4=C3C=CN4
Summary of the method: as §1

[10] = compound: C1COCCN1CCN2C3=CC=CC=C3N=C2NC(=O)C4=CC(=CC=C4)[N+](=O)[O-] [IRAK-1-4 Inhibitor I]
Summary of the method: as §1

Measured: log2 fold change

CAB39 (UniProt Q9Y376)
inactive: [1] -0.015 | [2] 0.003 | [3] -0.013 | [4] -0.01 | [5] 0.006 | [6] 0 | [7] 0.064 | [8] 0.017 | [9] 0.015 | [10] -0.016

C16orf70 (UniProt Q9BSU1)
inactive: [1] 0.023 | [2] 0.194 | [3] -0.06 | [5] 0.033 | [6] -0.128 | [7] -0.193 | [8] 0.016 | [9] 0.055 | [10] -0.021
active: [4] 0.271

C12orf29 (UniProt Q8N999)
inactive: [1] -0.003 | [2] -0.009 | [3] 0.016 | [4] -0.026 | [5] 0.04 | [6] -0.001 | [7] -0.009 | [8] -0.061 | [9] -0.023 | [10] -0.032

CA8 (UniProt P35219)
inactive: [1] -0.003 | [2] 0.003 | [3] -0.015 | [4] -0.001 | [5] 0.022 | [6] 0.014 | [7] -0.052 | [8] 0.005 | [9] 0.026 | [10] 0.031

CALU isoform 3 (UniProt O43852)
inactive: [1] -0.015 | [2] 0.006 | [3] 0.021 | [4] 0.016 | [5] -0.004 | [6] 0.008 | [7] -0.003 | [8] 0.002 | [9] 0.002 | [10] 0.006

CA2 (UniProt P00918)
inactive: [1] -0.086 | [2] -0.146 | [3] 0.13 | [4] -0.188 | [5] -0.058 | [6] 0.031 | [7] 0.036 | [8] -0.009 | [9] -0.112 | [10] -0.141

BZW1 isoform 3 (UniProt Q7L1Q6)
inactive: [1] 0.025 | [2] 0.026 | [3] -0.024 | [4] 0.006 | [5] 0.02 | [6] -0.005 | [7] 0 | [8] 0.019 | [9] -0.02 | [10] -0.019

C5orf51 (UniProt A6NDU8)
inactive: [1] 0.024 | [2] 0.004 | [3] -0.008 | [4] -0.026 | [5] 0.04 | [6] 0.007 | [7] -0.038 | [8] -0.027 | [9] 0.055 | [10] -0.025

CAND1 (UniProt Q86VP6)
inactive: [1] 0.003 | [2] -0.064 | [3] 0.026 | [4] -0.002 | [5] 0.026 | [6] 0.005 | [7] 0.006 | [8] -0.007 | [9] 0.018 | [10] 0.011

CANX isoform 2 (UniProt P27824)
inactive: [1] 0.007 | [2] -0.027 | [3] 0.048 | [4] 0.004 | [5] 0 | [6] -0.007 | [7] -0.042 | [8] 0 | [9] 0.013 | [10] 0.003

CAD (UniProt P27708)
inactive: [1] 0.013 | [2] 0.003 | [3] -0.015 | [4] 0.032 | [5] 0.013 | [6] -0.006 | [7] -0.008 | [8] -0.002 | [9] 0.011 | [10] -0.004

C9orf16 (UniProt Q9BUW7)
inactive: [1] 0.012 | [2] -0.002 | [3] -0.031 | [4] 0.062 | [6] -0.007 | [7] 0.047 | [8] -0.043 | [9] -0.005 | [10] -0.023

C11orf74 (UniProt Q86VG3)
inactive: [1] -0.182 | [2] 0.116 | [3] 0.121 | [4] -0.182 | [6] 0.12 | [7] -0.258 | [8] 0.008 | [9] -0.125 | [10] -0.018

C17orf80 (UniProt Q9BSJ5)
inactive: [1] -0.115 | [2] 0.265 | [3] 0.064 | [4] -0.027 | [7] -0.052

CA6 (UniProt P23280)
inactive: [1] -1.11 | [3] 0.227

C1GALT1 (UniProt Q9NS00)
inactive: [1] -0.1 | [2] 0.006 | [3] -0.068 | [4] 0.039 | [6] -0.004 | [7] -0.069 | [10] -0.043

CAPNS1 (UniProt K7ES78)
inactive: [1] 0.193 | [2] -0.23 | [3] 0.019 | [4] -0.275 | [6] -0.048 | [7] 0.047 | [10] -0.09

CANT1 (UniProt Q8WVQ1)
inactive: [1] 0.012 | [2] -0.021 | [3] -0.038 | [4] 0.01 | [5] -0.026 | [6] 0.006 | [7] 0.001 | [8] 0.013 | [9] -0.022 | [10] 0.01

C12orf57 (UniProt Q99622)
inactive: [1] 0.012 | [2] -0.39 | [3] 0.159 | [4] -0.062 | [7] 0.021

C12orf60 (UniProt Q5U649)
inactive: [1] -0.048 | [2] -0.14 | [3] 0.076 | [4] 0.046 | [6] -0.185 | [7] 0.036 | [10] -0.023

CAMSAP2 (UniProt Q08AD1)
inactive: [1] 0.112 | [2] 0.032 | [3] 0.306 | [4] 0.063 | [6] -0.094 | [7] -0.161 | [8] -0.008 | [9] -0.018 | [10] -0.055

C6orf120 (UniProt Q7Z4R8)
inactive: [1] 0.043 | [3] -0.014 | [5] 0.008

C9orf78 (UniProt Q9NZ63)
inactive: [1] -0.04 | [2] -0.031 | [3] 0.016 | [4] 0.017 | [5] -0.026 | [6] 0.025 | [7] -0.006 | [8] 0.002 | [9] 0 | [10] -0.067

C15orf39 (UniProt Q6ZRI6)
inactive: [1] -0.029 | [3] 0.026 | [5] -0.031 | [6] 0.052 | [8] 0.019 | [9] -0.009 | [10] 0.034

CACNA1C isoform 2 (UniProt Q13936)
inactive: [1] -0.035 | [3] 0.02

C1orf131 isoform 5 (UniProt Q8NDD1)
inactive: [1] -0.006 | [2] -0.094 | [3] 0.051 | [4] -0.058 | [6] -0.013 | [7] -0.001 | [8] -0.062 | [9] -0.011 | [10] 0.067

C3orf33 (UniProt Q6P1S2)
inactive: [1] 0.195 | [2] -0.205 | [3] 0.209 | [4] -0.124 | [5] 0.068 | [6] 0.032 | [7] 0.123 | [10] -0.281

CACUL1 (UniProt Q86Y37)
inactive: [1] 0.232 | [2] -0.048 | [3] 0.087 | [4] 0.044 | [6] 0.027 | [7] 0.045 | [8] 0.042 | [9] 0.023 | [10] 0.016

C17orf53 (UniProt Q8N3J3)
inactive: [1] -0.102 | [3] 0.094

C4BPA (UniProt P04003)
inactive: [1] -0.036 | [2] 0.194 | [3] -0.002 | [4] 0.245 | [6] -0.08 | [7] 0.117 | [10] -0.02

BTN3A3 (UniProt O00478)
inactive: [1] -0.11 | [2] 0.361 | [3] -0.188 | [4] -0.079 | [5] -0.038 | [6] 0.019 | [7] -0.148 | [10] 0.02

BUD13 (UniProt Q9BRD0)
inactive: [1] -0.04 | [3] -0.02 | [5] 0.054 | [6] 0.054 | [8] -0.046 | [9] -0.162 | [10] -0.066

8 consecutive records already listed, quoted:
CACNA1C isoform 2 (UniProt Q13936)
inactive: [1] -0.035 | [3] 0.02

C1orf131 isoform 5 (UniProt Q8NDD1)
inactive: [1] -0.006 | [2] -0.094 | [3] 0.051 | [4] -0.058 | [6] -0.013 | [7] -0.001 | [8] -0.062 | [9] -0.011 | [10] 0.067

C3orf33 (UniProt Q6P1S2)
inactive: [1] 0.195 | [2] -0.205 | [3] 0.209 | [4] -0.124 | [5] 0.068 | [6] 0.032 | [7] 0.123 | [10] -0.281

CACUL1 (UniProt Q86Y37)
inactive: [1] 0.232 | [2] -0.048 | [3] 0.087 | [4] 0.044 | [6] 0.027 | [7] 0.045 | [8] 0.042 | [9] 0.023 | [10] 0.016

C17orf53 (UniProt Q8N3J3)
inactive: [1] -0.102 | [3] 0.094

C4BPA (UniProt P04003)
inactive: [1] -0.036 | [2] 0.194 | [3] -0.002 | [4] 0.245 | [6] -0.08 | [7] 0.117 | [10] -0.02

BTN3A3 (UniProt O00478)
inactive: [1] -0.11 | [2] 0.361 | [3] -0.188 | [4] -0.079 | [5] -0.038 | [6] 0.019 | [7] -0.148 | [10] 0.02

BUD13 (UniProt Q9BRD0)
inactive: [1] -0.04 | [3] -0.02 | [5] 0.054 | [6] 0.054 | [8] -0.046 | [9] -0.162 | [10] -0.066

(list continues)

C1orf167 isoform 2 (UniProt Q5SNV9)
inactive: [1] 0.084 | [2] 0.131 | [3] 0.003 | [4] 0.023 | [5] -0.122 | [6] 0.011 | [7] 0.035 | [10] 0.015

C5orf34 (UniProt Q96MH7)
inactive: [1] 0.033 | [2] 0.304 | [3] -0.055 | [4] -0.144 | [7] -0.283 | [8] -0.232 | [9] -0.232
